From the M2OR odorant receptor database
The entries are a selection whose mix differs from that of the whole data set. The calls were merged from several studies; some rest on single wells. Some of the results follow.

Sequences of proteins named here, by UniProt entry; tags and fusion partners are left off. A change or cut given only in a name is not applied to a line headed by its entry.
UniProt Q96RD3: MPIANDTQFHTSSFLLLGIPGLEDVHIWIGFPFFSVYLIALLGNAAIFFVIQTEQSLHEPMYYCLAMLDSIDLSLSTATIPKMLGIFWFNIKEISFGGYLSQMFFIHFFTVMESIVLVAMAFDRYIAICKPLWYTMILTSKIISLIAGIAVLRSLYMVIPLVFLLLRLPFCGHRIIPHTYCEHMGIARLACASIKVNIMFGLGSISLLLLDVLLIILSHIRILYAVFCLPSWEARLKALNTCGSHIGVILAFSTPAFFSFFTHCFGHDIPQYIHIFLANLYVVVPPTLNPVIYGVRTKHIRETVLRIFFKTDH

Columns and labels:
Conditions in all cases: stereoisomer not certain
OR52E6 (Homo sapiens) = OR52E6 (Homo sapiens) (UniProt Q96RD3)
In short: (§1)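 Each entry records the cell line, G-protein, co-transfected protein and tags used. Methods varied with the source, often transient luciferase assays in mammalian cell lines. A receptor–molecule pair is called responsive (active) if the original authors judged its signal statistically different from baseline and non-responsive (inactive) otherwise.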

OR52H1 (Homo sapiens) = target: T1, OR52H1 (Homo sapiens) (UniProt Q8NGJ2)
T1 sequence (whole entry): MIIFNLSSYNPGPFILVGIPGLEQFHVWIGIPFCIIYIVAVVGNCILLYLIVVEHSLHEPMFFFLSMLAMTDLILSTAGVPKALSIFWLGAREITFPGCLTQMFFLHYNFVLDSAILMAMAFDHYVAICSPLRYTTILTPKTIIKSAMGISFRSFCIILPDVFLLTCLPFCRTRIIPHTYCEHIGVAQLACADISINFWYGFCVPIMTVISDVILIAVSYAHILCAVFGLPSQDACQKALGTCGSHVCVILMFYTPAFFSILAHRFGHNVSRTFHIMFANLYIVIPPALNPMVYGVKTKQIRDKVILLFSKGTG
In short: as §1

OR52K1 (Homo sapiens) = target: T2, OR52K1 (Homo sapiens) (UniProt Q8NGK4)
T2 sequence (whole entry): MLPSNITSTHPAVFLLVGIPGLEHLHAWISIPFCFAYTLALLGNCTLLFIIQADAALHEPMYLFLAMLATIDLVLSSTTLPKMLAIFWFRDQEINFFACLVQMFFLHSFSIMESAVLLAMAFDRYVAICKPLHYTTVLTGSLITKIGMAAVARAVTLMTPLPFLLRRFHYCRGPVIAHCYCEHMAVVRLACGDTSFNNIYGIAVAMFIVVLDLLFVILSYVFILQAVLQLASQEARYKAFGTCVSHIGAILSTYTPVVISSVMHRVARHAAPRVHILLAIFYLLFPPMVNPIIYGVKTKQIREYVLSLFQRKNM
In short: as §1

OR52K2 (Homo sapiens) = target: T3, OR52K2 (Homo sapiens) (UniProt Q8NGK3)
T3 sequence (whole entry): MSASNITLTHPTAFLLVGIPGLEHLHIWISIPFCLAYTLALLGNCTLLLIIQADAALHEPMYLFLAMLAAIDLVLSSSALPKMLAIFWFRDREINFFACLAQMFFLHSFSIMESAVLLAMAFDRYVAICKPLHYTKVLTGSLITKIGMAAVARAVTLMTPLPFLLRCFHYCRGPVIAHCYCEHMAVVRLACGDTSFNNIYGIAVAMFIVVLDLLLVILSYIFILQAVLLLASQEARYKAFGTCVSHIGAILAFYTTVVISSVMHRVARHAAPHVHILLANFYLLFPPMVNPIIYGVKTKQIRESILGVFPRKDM
In short: as §1

OR52N5 (Homo sapiens) = target: T4, OR52N5 (Homo sapiens) (UniProt Q8NH56)
T4 sequence (whole entry): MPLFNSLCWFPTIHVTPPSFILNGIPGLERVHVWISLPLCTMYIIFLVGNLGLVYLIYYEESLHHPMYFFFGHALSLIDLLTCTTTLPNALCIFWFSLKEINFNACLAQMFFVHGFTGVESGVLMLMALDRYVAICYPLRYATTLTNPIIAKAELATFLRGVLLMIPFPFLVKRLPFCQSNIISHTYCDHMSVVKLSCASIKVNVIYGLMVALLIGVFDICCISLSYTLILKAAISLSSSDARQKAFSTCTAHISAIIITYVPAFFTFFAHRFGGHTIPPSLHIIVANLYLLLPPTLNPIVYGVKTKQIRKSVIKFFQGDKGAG
In short: as §1

OR56A1 (Homo sapiens) = target: T5, OR56A1 (Homo sapiens) (UniProt Q8NGH5)
T5 sequence (whole entry): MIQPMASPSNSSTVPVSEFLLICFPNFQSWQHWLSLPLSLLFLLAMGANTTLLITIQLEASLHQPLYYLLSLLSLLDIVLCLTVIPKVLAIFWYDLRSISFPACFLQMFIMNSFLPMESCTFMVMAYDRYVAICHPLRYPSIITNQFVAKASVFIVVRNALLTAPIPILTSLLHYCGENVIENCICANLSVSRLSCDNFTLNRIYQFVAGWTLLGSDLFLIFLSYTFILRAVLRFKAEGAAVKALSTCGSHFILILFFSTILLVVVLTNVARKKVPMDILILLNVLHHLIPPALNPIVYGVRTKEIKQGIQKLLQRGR
In short: as §1

OR56A4 (Homo sapiens) = target: T6, OR56A4 (Homo sapiens) (UniProt Q8NGH8)
T6 sequence (whole entry): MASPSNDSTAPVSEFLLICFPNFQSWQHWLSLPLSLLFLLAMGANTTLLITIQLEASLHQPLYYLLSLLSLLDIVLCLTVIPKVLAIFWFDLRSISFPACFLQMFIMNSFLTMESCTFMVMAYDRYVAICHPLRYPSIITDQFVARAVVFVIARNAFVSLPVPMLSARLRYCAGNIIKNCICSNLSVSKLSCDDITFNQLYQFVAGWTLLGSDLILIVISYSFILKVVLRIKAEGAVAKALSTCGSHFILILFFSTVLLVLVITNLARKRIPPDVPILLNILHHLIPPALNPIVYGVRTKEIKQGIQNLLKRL
In short: as §1

| SMILES | odorant receptor agonist call (OR52E6 (Homo sapiens)) | odorant receptor agonist call (OR52H1 (Homo sapiens)) | odorant receptor agonist call (OR52K1 (Homo sapiens)) | odorant receptor agonist call (OR52K2 (Homo sapiens)) | odorant receptor agonist call (OR52N5 (Homo sapiens)) | odorant receptor agonist call (OR56A1 (Homo sapiens)) | odorant receptor agonist call (OR56A4 (Homo sapiens)) |
| --- | --- | --- | --- | --- | --- | --- | --- |
| CC1CCC(C(C)C)C(O)C1 (centres undefined) | inactive | inactive | inactive | inactive | inactive | inactive | inactive |
| CCCCCCCOC(C)=O | inactive | inactive | inactive | inactive | inactive | inactive | inactive |
| CCCCCCCCCC=O | inactive | inactive | inactive | inactive | active | inactive | inactive |
| CC(C)CC(=O)O | inactive | inactive | inactive | inactive | inactive | inactive | inactive |
| CCCCCC(=O)O | inactive | inactive | inactive | inactive | inactive | inactive | inactive |
| CC(C)C=O | inactive | inactive | inactive | inactive | inactive | inactive | inactive |
| COc1cc(C)ccc1O | inactive | inactive | inactive | inactive | inactive | inactive | inactive |
